Laboratory results taken from US9630896B2, “2,5-dialkyl-4-H/halo/ether-phenol compounds” (Tansna Therapeutics Inc, priority 2013, dated 2017).

System: 6 Hz 32 mA Epilepsy Model (electrically induced psychomotor seizure)
Experiment: Minimal clonic seizure (6 Hz, 32 mA) test
Assay type: in vivo, Mouse
Conditions: 6 Hz 32 mA dose response (Test 7-2); TD50 relative to ED50
Text: 1. Minimal Clonic Seizure (6 Hz, 32 mA or 44 mA) Test
Test compounds are pre-administered to mice via i.p. injection. At varying times, individual mice (four per time point) are challenged with sufficient current delivered through corneal electrodes to elicit a psychomotor seizure in 97% of animals (32 mA or 44 mA for 3 s) (Toman J E P, Everett G M, Richards R K: The Search for New Drugs against Epilepsy. Texas Reports on Biology and Medicine 1952; 10:96-104). Untreated mice will display seizures characterized by a minimal clonic phase followed by stereotyped, automatistic behaviors described originally as being similar to the aura of human patients with partial seizures. Animals not displaying this behavior are considered protected. The test compounds are evaluated quantitatively by measuring the responses at varying doses at a determined time of peak effect (TPE).

SMILES	Protective Index (PI)
Cc1cc(Br)c(C(C)C)cc1O [Ex. 9, 4-bromo-5-isopropyl-2-methyl phenol]	21.5
Cc1cc(O)c(C(C)C)cc1Br [Ex. 132, 4-Bromo-2-isopropyl-5-methyl-phenol]	>7.3
